Measured values: PubChem BioAssay AID248 (DTP/NCI, 2004)
The list does not hold the whole screen: it gathers tests that were run many times, whatever their T/C, doses with no T/C, and many T/C values between a quarter and a half above the control. Other doses and runs of a compound stand elsewhere. T/C: endpoint of the treated group in % of that of the vehicle group. Some doses have a count of surviving animals in place of a T/C: the source holds a T/C of zero for them, seemingly a mark for toxic or unscored doses. Some survivor counts are full or nearly so, which does not show that the dose was tolerated: the source hardly ever lists a survival T/C far under the control, and the zero likely stands for such cases as well. Survivors were counted at the toxicity check, usually on the fifth day, unless a day is given; later deaths do not show. Schedule codes are those of the source, read here as Q, the interval in days (D) or hours (H), X, the number of doses. Some molecules as drawn cover several salts, stereoisomers or complexes of the source; a dose is that of the sample tested. Some entries hold several experiments; their values stand side by side, smallest first. Some schedules carry Z or #; the key to these is not given. Signs of the kind (2×) say how often a value occurs here. Where survival is the endpoint, this PubChem deposit counts one and a half times the control or more as active, and values a quarter to a half above the control carry no call in these data; other NCI protocols may use other cut-offs.

Tested on: L1210 leukemia ip in BDF1 mice, survival T/C
Assay: NCI In Vivo Anticancer Drug Screen. Data for tumor model L1210 Leukemia (intraperitoneal) in B6D2F1 (BDF1) mice
Details: T/C endpoint: mean survival time, higher T/C = longer survival
[1] = dose: 400.0 mg/kg/injection, schedule: Q04DX003 (ip), vehicle: saline with Tween-80
[2] = dose: 50.0 mg/kg/injection, schedule: Q01DX009 (ip), vehicle: Klucel (hydroxypropylcellulose) (HPC)
[3] = dose: 40.0 mg/kg/injection, schedule: Q01DX001 (ip), vehicle: saline
[4] = dose: 100.0 mg/kg/injection, schedule: Q01DX005 (ip), vehicle: other

CCCCSSC(Cl)(Cl)Cl
survivor count (dose: 25.0 mg/kg/injection, schedule: Q01DX009 (ip), vehicle: carboxymethylcellulose (CMC)): 3 of 3
survivor count (dose: 50.0 mg/kg/injection, schedule: Q01DX009 (ip), vehicle: carboxymethylcellulose (CMC)): 0 of 6
survivor count (dose: 100.0 mg/kg/injection, schedule: Q01DX009 (ip), vehicle: carboxymethylcellulose (CMC)): 0 of 6
T/C (dose: 100.0 mg/kg/injection, schedule: Q04DX002 (ip), vehicle: carboxymethylcellulose (CMC)): 90, 98, 107, 116 % of control
survivor count (dose: 100.0 mg/kg/injection, schedule: Q04DX003 (ip), vehicle: carboxymethylcellulose (CMC)): 0 of 6
survivor count (dose: 200.0 mg/kg/injection, schedule: Q01DX009 (ip), vehicle: carboxymethylcellulose (CMC)): 0 of 6
survivor count (dose: 200.0 mg/kg/injection, schedule: Q04DX003 (ip), vehicle: carboxymethylcellulose (CMC)): 0 of 6
survivor count (dose: 400.0 mg/kg/injection, schedule: Q04DX002 (ip), vehicle: carboxymethylcellulose (CMC)): 1 of 3 and 3 of 6

Oc1ccccc1C=NCCN1CC1.Oc1ccccc1C=NCCN1CC1.[Cu]
survivor count (dose: 100.0 mg/kg/injection, schedule: Q01DX001 (ip), vehicle: Klucel (hydroxypropylcellulose) (HPC)): 0 of 6
survivor count (dose: 200.0 mg/kg/injection, schedule: Q01DX001 (ip), vehicle: Klucel (hydroxypropylcellulose) (HPC)): 0 of 6
survivor count (dose: 400.0 mg/kg/injection, schedule: Q01DX001 (ip), vehicle: Klucel (hydroxypropylcellulose) (HPC)): 0 of 6

CCCCCCCCCCCCCCCC(O)S(=O)(=O)O (stereo unspecified)
survivor count [1]: 6 of 6

CCN(CC)c1cccc(O)c1
survivor count [1]: 3 of 6

C=C(Cl)CSC(=N)N
survivor count (dose: 40.0 mg/kg/injection, schedule: Q01DX009 (ip), vehicle: saline): 4 of 6
survivor count [2]: 6 of 6
survivor count (dose: 100.0 mg/kg/injection, schedule: Q01DX009 (ip), vehicle: saline): 0 of 6
survivor count (dose: 200.0 mg/kg/injection, schedule: Q01DX009 (ip), vehicle: saline): 0 of 6
survivor count (dose: 400.0 mg/kg/injection, schedule: Q01DX009 (ip), vehicle: saline): 0 of 6

O=C(O)CCCc1ccc([N+](=O)[O-])cc1Cl
survivor count (dose: 400.0 mg/kg/injection, schedule: Q01DX009 (ip), vehicle: saline with Tween-80): 2 of 6

COc1ccc(NC(=O)COc2cccc(Cl)c2)cc1S(=O)(=O)F
survivor count (dose: 100.0 mg/kg/injection, schedule: Q04DX003 (ip), vehicle: gum acacia): 6 of 6

CCOC(=O)Sc1ncnc2nc[nH]c12
T/C (dose: 20.0 mg/kg/injection, schedule: Q01DX Z (ip), vehicle: carboxymethylcellulose (CMC)): 147 % of control
T/C (dose: 40.0 mg/kg/injection, schedule: Q01DX Z (ip), vehicle: carboxymethylcellulose (CMC)): 147 % of control
T/C (dose: 80.0 mg/kg/injection, schedule: Q01DX Z (ip), vehicle: carboxymethylcellulose (CMC)): 147 % of control

O=C1c2ccccc2C(=O)N1C1CCC(O)CC1 (stereo unspecified)
survivor count (dose: 200.0 mg/kg/injection, schedule: Q01DX001 (ip), vehicle: saline with Tween-80): 1 of 6
survivor count (dose: 400.0 mg/kg/injection, schedule: Q01DX001 (ip), vehicle: saline with Tween-80): 0 of 6

Cc1cccc(N)n1
survivor count (dose: 12.5 mg/kg/injection, schedule: Q04DX002 (ip), vehicle: saline): 3 of 3
survivor count (dose: 100.0 mg/kg/injection, schedule: Q04DX002 (ip), vehicle: saline): 0 of 3
survivor count (dose: 200.0 mg/kg/injection, schedule: Q04DX002 (ip), vehicle: saline): 1 of 3
survivor count (dose: 400.0 mg/kg/injection, schedule: Q04DX002 (ip), vehicle: saline): 0 of 3

Cc1cccc(CN2CCN(C(c3ccccc3)c3ccc(Cl)cc3)CC2)c1 (stereo unspecified)
survivor count (dose: 400.0 mg/kg/injection, schedule: Q01DX009 (ip), vehicle: Klucel (hydroxypropylcellulose) (HPC)): 0 of 6

O=P(NC(=S)OCCN1CC1)(NC(=S)OCCN1CC1)NC(=S)OCCN1CC1
survivor count (dose: 400.0 mg/kg/injection, schedule: Q01DX001 (ip), vehicle: carboxymethylcellulose (CMC)): 1 of 6

O=P(N=C=S)(N=C=S)N=C=S
survivor count (dose: 150.0 mg/kg/injection, schedule: Q01DX001 (ip), vehicle: other): 1 of 6
survivor count (dose: 300.0 mg/kg/injection, schedule: Q01DX001 (ip), vehicle: other): 0 of 6

COc1c(N)ccc(-c2ccc(N)c(OC)c2Cl)c1Cl
survivor count (dose: 150.0 mg/kg/injection, schedule: Q04DX003 (ip), vehicle: saline with Tween-80): 5 of 6
survivor count (dose: 300.0 mg/kg/injection, schedule: Q04DX003 (ip), vehicle: saline with Tween-80): 1 of 6

COc1ccc2cc3[n+](cc2c1OC)CCc1cc2c(cc1-3)OCO2
survivor count (dose: 25.0 mg/kg/injection, schedule: Q01DX009 (ip), vehicle: Klucel (hydroxypropylcellulose) (HPC)): 1 of 6 and 6 of 6
survivor count (dose: 25.0 mg/kg/injection, schedule: Q01DX Z (ip), vehicle: saline): 3 of 7
survivor count [3]: 1 of 4
survivor count [2]: 0 of 6 (2×)
survivor count (dose: 50.0 mg/kg/injection, schedule: Q01DX Z (ip), vehicle: saline): 0 of 7
survivor count (dose: 75.0 mg/kg/injection, schedule: Q01DX Z (ip), vehicle: saline): 0 of 7
survivor count (dose: 80.0 mg/kg/injection, schedule: Q01DX001 (ip), vehicle: saline): 0 of 4
survivor count (dose: 100.0 mg/kg/injection, schedule: Q01DX001 (ip), vehicle: saline): 0 of 4
survivor count (dose: 100.0 mg/kg/injection, schedule: Q01DX009 (ip), vehicle: Klucel (hydroxypropylcellulose) (HPC)): 0 of 6
survivor count (dose: 200.0 mg/kg/injection, schedule: Q01DX001 (ip), vehicle: saline): 0 of 4
survivor count (dose: 200.0 mg/kg/injection, schedule: Q01DX009 (ip), vehicle: Klucel (hydroxypropylcellulose) (HPC)): 0 of 6
survivor count (dose: 400.0 mg/kg/injection, schedule: Q01DX001 (ip), vehicle: saline): 0 of 4

CCCCN(C)N=Nc1ccc(C(=N)N)cc1
survivor count (dose: 100.0 mg/kg/injection, schedule: Q01DX001 (ip), vehicle: alkali diluted with CMC): 0 of 6
survivor count (dose: 200.0 mg/kg/injection, schedule: Q01DX001 (ip), vehicle: alkali diluted with CMC): 0 of 6
survivor count (dose: 400.0 mg/kg/injection, schedule: Q01DX001 (ip), vehicle: alkali diluted with CMC): 0 of 6

C(=N\NC1=NCCN1)/c1ccccc1
survivor count [3]: 1 of 6
survivor count (dose: 75.0 mg/kg/injection, schedule: Q01DX001 (ip), vehicle: saline): 1 of 6
survivor count (dose: 150.0 mg/kg/injection, schedule: Q01DX001 (ip), vehicle: saline): 0 of 6
survivor count (dose: 300.0 mg/kg/injection, schedule: Q01DX001 (ip), vehicle: saline): 0 of 6

NC(=O)CN1C(=O)C2C3CCC(O3)C2C1=O (stereo unspecified)
survivor count (dose: 200.0 mg/kg/injection, schedule: Q04DX003 (ip), vehicle: saline): 0 of 3

NNc1c(F)c(N)c(F)c(F)c1F
survivor count (dose: 25.6 mg/kg/injection, schedule: Q04DX002 (ip), vehicle: saline with Tween-80): 3 of 3
survivor count (dose: 64.0 mg/kg/injection, schedule: Q04DX002 (ip), vehicle: saline with Tween-80): 0 of 3
survivor count (dose: 160.0 mg/kg/injection, schedule: Q04DX002 (ip), vehicle: saline with Tween-80): 0 of 3
survivor count (dose: 400.0 mg/kg/injection, schedule: Q04DX002 (ip), vehicle: saline with Tween-80): 0 of 3

CCCCCCCCCCc1cc2c([nH]1)C(=O)c1ccccc1C2=O
survivor count (dose: 150.0 mg/kg/injection, schedule: Q01DX001 (ip), vehicle: Klucel (hydroxypropylcellulose) (HPC)): 6 of 6

CN(C)N=Nc1ccc([N+](=O)[O-])cc1C(N)=O
T/C (dose: 200.0 mg/kg/injection, schedule: Q01DX007 (ip), vehicle: saline with Tween-80): 147 % of control

NNc1ccnc2c1cnn2C1OC(CO)C(O)C1O (stereo unspecified)
survivor count (dose: 50.0 mg/kg/injection, schedule: Q01DX005 (ip), vehicle: other): 3 of 3
T/C [4]: 125 % of control
survivor count [4]: 3 of 3
survivor count (dose: 150.0 mg/kg/injection, schedule: Q01DX005 (ip), vehicle: other): 1 of 3
survivor count (dose: 200.0 mg/kg/injection, schedule: Q01DX005 (ip), vehicle: other): 2 of 3
